According to paper PMC4935812:
Where two headings read alike, the source gives them in different places. Results are given in words; binding and its absence hold for the method and conditions named. Binding seen in cells or lysates may run through a third protein. Some entries that bind do so weakly or less than the wild type. Tags and fused reporters may be left off the sequences shown.

By UniProt entry, the sequences of proteins in these tests, tags left out.
UniProt P11940: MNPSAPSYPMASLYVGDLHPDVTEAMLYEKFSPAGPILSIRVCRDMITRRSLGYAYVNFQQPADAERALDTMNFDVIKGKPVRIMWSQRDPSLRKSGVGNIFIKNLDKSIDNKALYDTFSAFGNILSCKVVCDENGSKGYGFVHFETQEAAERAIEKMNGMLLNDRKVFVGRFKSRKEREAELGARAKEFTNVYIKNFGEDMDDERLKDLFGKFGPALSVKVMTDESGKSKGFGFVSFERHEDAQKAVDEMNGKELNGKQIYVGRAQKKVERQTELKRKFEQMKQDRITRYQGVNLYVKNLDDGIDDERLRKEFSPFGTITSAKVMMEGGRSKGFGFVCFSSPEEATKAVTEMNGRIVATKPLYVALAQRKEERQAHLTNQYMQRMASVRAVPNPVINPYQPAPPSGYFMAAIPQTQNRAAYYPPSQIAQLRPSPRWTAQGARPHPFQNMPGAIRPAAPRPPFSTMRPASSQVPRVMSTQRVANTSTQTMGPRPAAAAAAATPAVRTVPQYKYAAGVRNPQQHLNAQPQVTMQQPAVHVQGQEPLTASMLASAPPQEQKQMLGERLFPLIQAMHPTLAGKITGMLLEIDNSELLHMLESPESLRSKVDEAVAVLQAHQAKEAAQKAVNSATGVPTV
UniProt Q13283: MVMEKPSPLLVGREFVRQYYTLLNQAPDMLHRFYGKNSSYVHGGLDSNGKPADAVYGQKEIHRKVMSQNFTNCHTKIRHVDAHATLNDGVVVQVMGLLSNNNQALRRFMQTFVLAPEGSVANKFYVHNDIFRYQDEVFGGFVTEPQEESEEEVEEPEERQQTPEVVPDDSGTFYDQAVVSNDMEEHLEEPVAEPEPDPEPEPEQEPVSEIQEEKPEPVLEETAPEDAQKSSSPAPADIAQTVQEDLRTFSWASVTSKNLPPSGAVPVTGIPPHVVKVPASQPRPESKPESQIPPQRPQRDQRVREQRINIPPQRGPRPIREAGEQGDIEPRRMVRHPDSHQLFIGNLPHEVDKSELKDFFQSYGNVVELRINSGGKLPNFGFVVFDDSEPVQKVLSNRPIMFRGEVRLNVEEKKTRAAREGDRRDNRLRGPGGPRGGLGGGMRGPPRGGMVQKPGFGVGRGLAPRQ
UniProt P06730: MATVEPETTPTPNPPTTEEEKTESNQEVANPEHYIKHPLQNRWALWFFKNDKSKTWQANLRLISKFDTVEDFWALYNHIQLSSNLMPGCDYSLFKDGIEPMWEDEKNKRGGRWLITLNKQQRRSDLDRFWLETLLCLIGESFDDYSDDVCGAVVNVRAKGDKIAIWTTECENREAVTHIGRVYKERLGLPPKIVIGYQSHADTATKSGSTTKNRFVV
UniProt P61081: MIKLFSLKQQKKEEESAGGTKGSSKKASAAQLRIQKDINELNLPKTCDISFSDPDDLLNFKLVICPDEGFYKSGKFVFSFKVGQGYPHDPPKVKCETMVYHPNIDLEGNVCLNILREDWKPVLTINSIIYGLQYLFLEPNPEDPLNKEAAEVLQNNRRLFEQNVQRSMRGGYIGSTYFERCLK

How the values were obtained:
Test in all cases: co-IP; Flag agarose beads, 1–2 mg lysate, overnight at 4 °C; IP buffer 50 mM Tris-Cl pH 7.5, 150 mM NaCl, 1 mM EDTA, 1% Triton X-100; cells mock or arsenite treated; western blot of the precipitates
Flag–SRSF3-WT (human) [1] = target: T1, Flag–SRSF3-WT (human) (UniProt P84103)
T1 sequence: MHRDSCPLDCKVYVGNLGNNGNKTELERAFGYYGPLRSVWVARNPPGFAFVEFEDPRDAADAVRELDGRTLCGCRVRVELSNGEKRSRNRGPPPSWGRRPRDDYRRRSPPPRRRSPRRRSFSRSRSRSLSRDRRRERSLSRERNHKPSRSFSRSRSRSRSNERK

Flag–SRSF3–K85R (human) = target: T2, Flag–SRSF3–K85R (human) (UniProt P84103)
T2 sequence: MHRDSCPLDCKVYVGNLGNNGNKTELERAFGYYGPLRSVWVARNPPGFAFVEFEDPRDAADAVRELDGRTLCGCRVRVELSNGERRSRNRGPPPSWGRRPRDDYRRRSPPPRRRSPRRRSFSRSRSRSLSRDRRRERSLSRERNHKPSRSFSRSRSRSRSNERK

Flag–SRSF3-WT (human) [2] = target: T1, Flag–SRSF3-WT (human); remark: listed apart in the source

Molecule: polyadenylate-binding protein 1 (PABP1) (from UniProt P11940 1-636)
- binding (Flag–SRSF3-WT (human) [1]): binds
- binding (Flag–SRSF3–K85R (human)): binds

Molecule: G3BP1 (from UniProt Q13283 1-466)
- binding (Flag–SRSF3-WT (human) [1]): binds
- binding (Flag–SRSF3–K85R (human)): binds

Molecule: eIF4E (from UniProt P06730 1-217)
- binding (Flag–SRSF3-WT (human) [1]): binds
- binding (Flag–SRSF3–K85R (human)): binds

Molecule: UBE2M (from UniProt P61081 1-183) (enzyme)
- binding (Flag–SRSF3-WT (human) [1]): binds

B1: TIA-1 (protein, UniProt P31483 1-386)
chain: MEDEMPKTLYVGNLSRDVTEALILQLFSQIGPCKNCKMIMDTAGNDPYCFVEFHEHRHAAAALAAMNGRKIMGKEVKVNWATTPSSQKKDTSSSTVVSTQRSQDHFHVFVGDLSPEITTEDIKAAFAPFGRISDARVVKDMATGKSKGYGFVSFFNKWDAENAIQQMGGQWLGGRQIRTNWATRKPPAPKSTYESNTKQLSYDEVVNQSSPSNCTVYCGGVTSGLTEQLMRQTFSPFGQIMEIRVFPDKGYSFVRFNSHESAAHAIVSVNGTTIEGHVVKCYWGKETLDMINPVQQQNQIGYPQPYGQWGQWYGNAQQIGQYMPNGWQVPAYGMYGQAWNQQGFNQTQSSAPWMGPNYGVQPPQGQNGSMLPNQPSGYRVAGYETQ
- binding (Flag–SRSF3-WT (human) [2]): binds
